The values below come from paper PMC10363981 (Frontiers in Pharmacology, 2023).

For some assays here: HELM strings list residues between dots; [ac] is acetyl, [am] amide, other brackets name non-standard units. The star is where a group is joined. Fmoc = O=C(OCC1c2ccccc2-c2ccccc21)*

A short description of data set [1]: general procedure: Fmoc solid-phase peptide synthesis; Fmoc-Gly-Wang resin; COMU, DIPEA. To be noted: whole synthesis.
A short description of data set [2]: general procedure: Fmoc solid-phase peptide synthesis; Fmoc-Gly preloaded Wang resin (loading 0.4–0.8 mmol/g); COMU, DIPEA. The settings on record: late stage modification step.

Consider Fmoc-GPLG-OH, for which the isolated yield in data set [1] was found to be 99% yield.
PEPTIDE1{G.P.L.G.[PABC-MMAE]}$$$$V2.0 returned a step yield in data set [2] of 61% yield.
